Measurements reported in patent US6667346B2, “Method for protecting cells and tissues from ionizing radiation toxicity with α, β unsaturated aryl sulfones” (Temple University - Of The Commonwealth System of Higher …, priority 2001, dated 2003).
At least one compound was matched to its structure with a doubt left.

Test system: HFL-1 cells
Experiment: Radioprotective effects on cultured normal cells (colony formation after irradiation)
Format: cell-based, human
Conditions: HFL-1 normal diploid lung fibroblasts; 2.5 to 20 micromolar for 24 hrs before 10 Gy or 15 Gy IR; colonies counted after 3 weeks
Description: HFL-1 cells, which are normal diploid lung fibroblasts, were plated into 24 well dishes at a cell density of 3000 cells per 10 mm^2 in DMEM completed with 10% fetal bovine serum and antibiotics. The test compounds listed in Table 16 were added to the cells 24 hours later in select concentrations from 2.5 to 20 micromolar, inclusive, using DMSO as a solvent. Control cells were treated with DMSO alone. The cells were exposed to the test compound or DMSO for 24 hrs. The cells were then irradiated with either 10 Gy (gray) or 15 Gy of ionizing radiation (IR) using a J. L. Shepherd Mark I, Model 30-1 Irradiator equipped with ^137cesium as a source.
After irradiation, the medium on the test and control cells was removed and replaced with fresh growth medium without the test compounds or DMSO. […] The number of colonies from each 100 mm^2 culture dish, which represents the number of surviving cells, was determined by staining the dishes as described below.
To visualize and count the colonies derived from the clonal outgrowth of individual radioprotected cells, the medium was removed and the plates were washed one time with room temperature phosphate buffered saline. […] The plates were air dried, the number of colonies from each plate were counted and the average from duplicate plates was determined. […]

In the case of `O=S(=O)(/C=C/c1ccncc1)Cc1ccc(Cl)cc1` [Compound 9, (E)-4-Pyridylethenyl-4-chlorobenzylsulfone], the “Activity (radioprotective activity, fold protection: colonies test/control)” value is reported as “−”.
